In the experiment the test system is BDF1 mice, B16 melanoma ip, median survival T/C. Nature of the experiment: NCI In Vivo Anticancer Drug Screen. Data for tumor model B16 Melanoma (intraperitoneal) in B6D2F1 (BDF1) mice. Conditions: T/C endpoint: median survival time, higher T/C = longer survival. The procedure:
The antitumor activity of compounds was measured in mice bearing transplantable tumors. Survival or tumor size were measured and the results are expressed as the measurement made in the treated group (T) divided by the measurement made in the vehicle treated control group (C). The tumor model used in this assay is B16 Melanoma (intraperitoneal) in B6D2F1 (BDF1) mice

[1] abbreviates: dose: 6.0 mg/kg/injection, schedule: Q01DX009 (ip), vehicle: saline.
Where [2] appears, read: dose: 400.0 mg/kg/injection, schedule: Q01DX009 (ip), vehicle: saline with Tween-80.
[3] abbreviates: dose: 50.0 mg/kg/injection, schedule: Q01DX009 (ip), vehicle: saline with Tween-80.
Where [4] appears, read: dose: 100.0 mg/kg/injection, schedule: Q01DX009 (ip), vehicle: saline with Tween-80.
The mark [5] stands for this setting: dose: 200.0 mg/kg/injection, schedule: Q01DX009 (ip), vehicle: saline.
Where [6] appears, read: dose: 25.0 mg/kg/injection, schedule: Q01DX009 (ip), vehicle: saline with Tween-80.
[7] abbreviates: dose: 25.0 mg/kg/injection, schedule: Q01DX009 (ip), vehicle: saline.
Where [8] appears, read: dose: 100.0 mg/kg/injection, schedule: Q01DX009 (ip), vehicle: saline.
[9] abbreviates: dose: 400.0 mg/kg/injection, schedule: Q01DX009 (ip), vehicle: saline.
The mark [10] stands for this setting: dose: 200.0 mg/kg/injection, schedule: Q01DX009 (ip), vehicle: saline with Tween-80.
The mark [11] stands for this setting: dose: 400.0 mg/kg/injection, schedule: Q01DX009 (ip), vehicle: Klucel (hydroxypropylcellulose) (HPC).
Setting [12] is: dose: 200.0 mg/kg/injection, schedule: Q01DX009 (ip), vehicle: Klucel (hydroxypropylcellulose) (HPC).

The list shows only some results of the screen, not a fair sample: it is rich in T/C values a quarter to a half above the control, in often repeated tests (any T/C) and in doses without a T/C. Further doses and runs are listed elsewhere. T/C is the treated group as % of the vehicle group. Some doses have a count of surviving animals in place of a T/C: the source holds a T/C of zero for them, seemingly a mark for toxic or unscored doses. Some survivor counts are full or nearly so, which does not show that the dose was tolerated: the source hardly ever lists a survival T/C far under the control, and the zero likely stands for such cases as well. Counts of survivors are from the toxicity check (mostly the fifth day) where no day follows; animals may have died later. Schedules are NCI's codes, taken here to give the interval after Q, in days (D) or hours (H), and the number of doses after X. Some entries were tested several times; their values stand side by side, smallest first. Signs of the kind (2×) say how often a value occurs here. Where survival is the endpoint, the PubChem record calls one and a half times the control and up active, and a quarter to a half above the control has no call in these data; cut-offs in other NCI protocols can differ. Some T/C values carry the count of animals alive at the toxicity check (mostly the fifth day); where none is given, no animal had died by that day. Bridge positions count the residues as written; N and C are the ends. Square brackets hold non-standard residues; d marks the D form. Peptide text beside a SMILES is read from it. I, II: the chains in the order shown. * marks the point of attachment. Quinoxaline2carbonyl = O=C(c1cnc2ccccc2n1)*; NMeV = CN[CH](C(=O)O)C(C)C; NMeC = CN[CH](CS)C(=O)O

As for `CC12CCC3C(CCC4CC(OC(=O)Cc5ccc(N(CCCl)CCCl)cc5)CCC43C)C1CCC(=O)N2` (configuration not stated), the T/C is 133 % of control (dose: 3.0 mg/kg/injection, schedule: Q01DX009 (ip), vehicle: saline with Tween-80); 134 % of control (dose: 6.0 mg/kg/injection, schedule: Q01DX009 (ip), vehicle: saline with Tween-80); 143 % of control under setting [1]; 145 % of control (dose: 12.0 mg/kg/injection, schedule: Q01DX009 (ip), vehicle: saline with Tween-80). Further, the survivor count (dose: 24.0 mg/kg/injection, schedule: Q01DX009 (ip), vehicle: saline with Tween-80) is listed as 9 of 10 and the survivor count (dose: 24.0 mg/kg/injection, schedule: Q01DX009 (ip), vehicle: saline) is recorded as 9 of 10.
With `CC(C)(C)OC(=O)n1cnc(CC(NC(=O)OCc2ccccc2)C(=O)O)c1` (configuration not stated), under setting [2], the survivor count is recorded as 10 of 10.
Consider `CC/C(=C(/CC)c1ccc(O)cc1)c1ccc(O)cc1`, for which the survivor count under setting [3] is listed as 6 of 6 and the survivor count under setting [4] is listed as 4 of 6.
Take `Cc1cccc(CN)n1`: the T/C under setting [5] is 134 % of control [9 of 10 alive].
As to `C=CCNc1nc2c(s1)CCc1cc(OC)c(OC)cc1-2`, under setting [2], the survivor count is recorded as 7 of 10.
In the case of `Cc1ccccc1OCC(O)CO` (configuration not stated), the survivor count under setting [6] is reported as 10 of 10.
For the compound `NC(CSC(c1ccccc1)(c1ccccc1)c1ccccc1)C(=O)O` (configuration not stated), the T/C under setting [7] is 125 and 147 % of control. The survivor count runs as follows: under setting [8], 6 of 6; under setting [5], 6 of 6.
For `CC(CCc1ccccc1)NN` (configuration not stated), the T/C (dose: 12.5 mg/kg/injection, schedule: Q01DX009 (ip), vehicle: saline) is 132 % of control. The survivor count runs as follows: (dose: 50.0 mg/kg/injection, schedule: Q01DX009 (ip), vehicle: saline) 10 of 10; under setting [8], 1 of 10; under setting [5], 0 of 10; under setting [9], 0 of 10.
Consider `OCC(O)c1ccccn1` (configuration not stated), for which the T/C under setting [5] is 129 % of control.
As to `N=Cc1c(O)[nH]c(=O)[nH]c1=O`, the survivor count (dose: 75.0 mg/kg/injection, schedule: Q01DX009 (ip), vehicle: Klucel (hydroxypropylcellulose) (HPC)) is listed as 10 of 10.
`CN1CCN(Cc2nc3cccc4c3c([n+]2[O-])-c2ccccc2-4)CC1`: the survivor count under setting [2] is on record as 3 of 10.
In the case of `COc1cccc2c1C(=O)c1c(O)c3c(c(O)c1C2=O)C[C@@](O)(C(=O)CN1CCOCC1)C[C@@H]3OC1CC(N)C(O)C(C)O1` (some centres not stated), the T/C (dose: 1.56 mg/kg/injection, schedule: Q01DX009 (ip), vehicle: water) was 130 % of control.
Regarding `Cc1c2cc[n+](C)cc2c(C)c2c1[nH]c1ccc(O)cc12`, the T/C (dose: 0.13 mg/kg/injection, schedule: Q01DX009 (ip), vehicle: water) is 125 % of control. In addition, the survivor count reads like this: (dose: 0.5 mg/kg/injection, schedule: Q01DX009 (ip), vehicle: water) 10 of 10; (dose: 1.0 mg/kg/injection, schedule: Q01DX009 (ip), vehicle: water) 9 of 10; (dose: 2.0 mg/kg/injection, schedule: Q01DX009 (ip), vehicle: water) 10 of 10.
As for `S=C=NCC(Br)CBr` (configuration not stated), the survivor count (dose: 25.0 mg/kg/injection, schedule: Q01DX009 (ip), vehicle: Klucel (hydroxypropylcellulose) (HPC)) is 7 of 10.
On to `CC1(C)OCC(CO)(Nc2nc(N3CC3)nc(N3CC3)n2)CO1`, for which the T/C runs as follows: (dose: 0.62 mg/kg/injection, schedule: Q01DX009 (ip), vehicle: saline) 106, 119, 121, 123 % of control; (dose: 1.25 mg/kg/injection, schedule: Q01DX009 (ip), vehicle: saline) 114, 140, 162 % of control (2×); (dose: 2.5 mg/kg/injection, schedule: Q01DX009 (ip), vehicle: saline) 137, 138, 170, 194 % of control. Besides, the survivor count runs as follows: (dose: 5.0 mg/kg/injection, schedule: Q01DX009 (ip), vehicle: saline) 9 of 10 and 10 of 10 (2×); (dose: 10.0 mg/kg/injection, schedule: Q01DX009 (ip), vehicle: saline) 7 of 10 and 10 of 10.
`C1CC2CCC3CCCC4CCC(C1)C2C34` (configuration not stated): the survivor count is on record as 10 of 10 (dose: 12.5 mg/kg/injection, schedule: Q01DX009 (ip), vehicle: saline with Tween-80); 10 of 10 under setting [3]; 10 of 10 under setting [4]; 10 of 10 under setting [10].
`c1cc2cc3c(cc2c2c1CC1c4cc5c(cc4CCN1C2)OCO5)OCO3` (configuration not stated): under setting [11], the survivor count is listed as 10 of 10.
As to `CCOC(=O)C(N)C[S][Sn]([CH3])([CH3])[Cl]` (configuration not stated), the survivor count reads like this: under setting [3], 8 of 10; under setting [4], 0 of 10.
Turning to `CNC(=O)Nc1cccc(C(F)(F)F)c1`, the survivor count runs as follows: under setting [12], 10 of 10; under setting [11], 7 of 10.
With `CC1NC(=O)C(NC(=O)c2cnc3ccccc3n2)COC(=O)C(C(C)C)N(C)C(=O)C2CSSCC(C(=O)N(C)C(C(C)C)C(=O)OCC(NC(=O)c3cnc4ccccc4n3)C(=O)NC(C)C(=O)N2C)N(C)C1=O` (configuration not stated) (I: Quinoxaline2carbonyl-SA[NMeC][NMeV] / II: Quinoxaline2carbonyl-SA[NMeC][NMeV]; ester I:1-II:C, I:C-II:1; disulfide I:3-II:3; configuration not given here), the T/C was 140 % of control (dose: 11.2 micrograms/kg/injection, schedule: Q01DX009 (ip), vehicle: Klucel (hydroxypropylcellulose) (HPC)) and 130 % of control (dose: 12.0 micrograms/kg/injection, schedule: Q01DX009 (ip), vehicle: Klucel (hydroxypropylcellulose) (HPC)). The survivor count is 10 of 10 (dose: 90.0 micrograms/kg/injection, schedule: Q01DX009 (ip), vehicle: Klucel (hydroxypropylcellulose) (HPC)) and 9 of 10 (dose: 180.0 micrograms/kg/injection, schedule: Q01DX009 (ip), vehicle: Klucel (hydroxypropylcellulose) (HPC)).
`Cc1cc(NC(=O)NCc2ccc(N3C(N)=NC(N)=NC3(C)C)cc2)ccc1S(=O)(=O)F`: the T/C was 127 % of control (dose: 100.0 mg/kg/injection, schedule: Q04DX003 (ip), vehicle: saline) and 127 % of control (dose: 200.0 mg/kg/injection, schedule: Q04DX003 (ip), vehicle: saline).
Consider `Cc1ccc(NC(=O)COc2ccc(Cl)cc2)cc1Cl`, for which the survivor count by setting is: (dose: 100.0 mg/kg/injection, schedule: Q01DX009 (ip), vehicle: Klucel (hydroxypropylcellulose) (HPC)) 10 of 10; under setting [12], 10 of 10; under setting [11], 10 of 10.
For `O=C(NCCCCCCCCCCNC(=O)N1CC1)N1CC1`, the T/C (dose: 1.5 mg/kg/injection, schedule: Q01DX009 (ip), vehicle: saline) was 127 % of control. Also, the survivor count under setting [1] was 10 of 10 and the survivor count (dose: 12.0 mg/kg/injection, schedule: Q01DX009 (ip), vehicle: saline) was 8 of 10.
In the case of `CCN(CC)CCN(C)CCN(CC)CC`, the survivor count under setting [5] is given as 9 of 10.
Regarding `CC[CH2][Sn]([CH2]CC)([CH2]CC)[O][Sn]([CH2]CC)([CH2]CC)[CH2]CC`, the survivor count (dose: 2.0 mg/kg/injection, schedule: Q04DX003 (ip), vehicle: saline) is 10 of 10.
Turning to `O=[N+]([O-])c1ccc2scc3c4ccccc4nc-3c2c1`, the survivor count under setting [7] was 5 of 10.
`NC(=O)c1ncn(C2OC(CO)C(O)C2O)n1` (configuration not stated): the survivor count (dose: 320.0 mg/kg/injection, schedule: Q01DX009 (ip), vehicle: saline) is reported as 10 of 10.
For the compound `CCN(CC)C(=O)c1ccc(C(Cl)(Cl)Cl)cc1`, the survivor count is reported as 10 of 10 under setting [3], 9 of 10 under setting [4] and 1 of 10 under setting [10].
Take `COc1cc(Cl)c(CC(=O)c2c[nH]c3ccccc23)cc1OC`: the survivor count is recorded as 10 of 10 under setting [6] and 10 of 10 under setting [3].
As for `C=C1C(=O)OC2C=C(C)C3C(O)CC(C)(O)C3CC12` (configuration not stated), the survivor count reads like this: under setting [12], 10 of 10; under setting [11], 5 of 10.
As for `COC(=O)C(N)CSCc1ccccc1` (configuration not stated), the survivor count under setting [9] is listed as 5 of 10.
